Results taken from paper PMC12635394, “UBE2O-mediated ubiquitylation directs cytoplasmic CTNNA1 to promote cell-to-ECM adhesions” (EMBO Reports, 2025).
Results are given in words; binding and its absence hold for the method and conditions named. For some of these results: Binding seen in cells or lysates may run through a third protein. Some binding calls cover weakened binding; strength is not graded here. For some of these results: Where a sequence is shown, tags or fusion partners need not be part of it.

Protein sequences, listed by entry. Tags and fused reporters are not part of them.
UniProt P35222: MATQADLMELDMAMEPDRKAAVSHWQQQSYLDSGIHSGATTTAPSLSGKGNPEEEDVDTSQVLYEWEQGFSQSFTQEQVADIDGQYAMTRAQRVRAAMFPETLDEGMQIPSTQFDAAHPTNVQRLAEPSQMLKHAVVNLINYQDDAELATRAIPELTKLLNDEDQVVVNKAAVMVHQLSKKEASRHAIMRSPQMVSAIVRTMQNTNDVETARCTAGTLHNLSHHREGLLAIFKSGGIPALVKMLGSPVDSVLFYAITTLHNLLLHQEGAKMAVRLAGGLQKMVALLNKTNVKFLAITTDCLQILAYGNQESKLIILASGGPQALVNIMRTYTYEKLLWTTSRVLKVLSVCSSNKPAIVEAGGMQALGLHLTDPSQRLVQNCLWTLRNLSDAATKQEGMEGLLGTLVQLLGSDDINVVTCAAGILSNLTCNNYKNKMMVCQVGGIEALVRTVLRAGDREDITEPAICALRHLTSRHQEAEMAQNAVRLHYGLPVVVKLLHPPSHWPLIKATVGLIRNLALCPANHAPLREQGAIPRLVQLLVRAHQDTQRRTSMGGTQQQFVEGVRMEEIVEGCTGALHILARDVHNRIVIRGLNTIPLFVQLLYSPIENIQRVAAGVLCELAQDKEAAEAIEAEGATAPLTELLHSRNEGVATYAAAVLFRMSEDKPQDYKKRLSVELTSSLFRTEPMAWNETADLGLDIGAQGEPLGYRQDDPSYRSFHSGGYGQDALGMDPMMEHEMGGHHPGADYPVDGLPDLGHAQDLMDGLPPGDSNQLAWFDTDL

What was measured:
[1] = target: Myc-CTNNA1 (full-length mouse Ctnna1, expressed in cells) (mouse) (UniProt P26231); assay: co-IP; UBE2O and CTNNA1 expressed in HEK293T with or without co-expressed β-catenin, immunoblot
[2] = target: CTNNA1-V5 (purified mouse CTNNA1 with C-terminal V5 tag) (mouse) (UniProt P26231); assay: pull-down; 0.1 μM CTNNA1-V5 pre-incubated overnight at 4 °C with 0, 25 or 50 nM His-GST-β-catenin, captured on BSA-blocked V5-Trap beads, washed, then 0.1 μM Flag-UBE2O-TS for 1.5 h at 4 °C, immunoblot; both purified
[3] = target: T1, Flag-UBE2O (full length, expressed in cells) (human) (UniProt Q9C0C9); assay: co-IP; UBE2O and CTNNA1 expressed in HEK293T with or without co-expressed β-catenin, immunoblot
T1 sequence: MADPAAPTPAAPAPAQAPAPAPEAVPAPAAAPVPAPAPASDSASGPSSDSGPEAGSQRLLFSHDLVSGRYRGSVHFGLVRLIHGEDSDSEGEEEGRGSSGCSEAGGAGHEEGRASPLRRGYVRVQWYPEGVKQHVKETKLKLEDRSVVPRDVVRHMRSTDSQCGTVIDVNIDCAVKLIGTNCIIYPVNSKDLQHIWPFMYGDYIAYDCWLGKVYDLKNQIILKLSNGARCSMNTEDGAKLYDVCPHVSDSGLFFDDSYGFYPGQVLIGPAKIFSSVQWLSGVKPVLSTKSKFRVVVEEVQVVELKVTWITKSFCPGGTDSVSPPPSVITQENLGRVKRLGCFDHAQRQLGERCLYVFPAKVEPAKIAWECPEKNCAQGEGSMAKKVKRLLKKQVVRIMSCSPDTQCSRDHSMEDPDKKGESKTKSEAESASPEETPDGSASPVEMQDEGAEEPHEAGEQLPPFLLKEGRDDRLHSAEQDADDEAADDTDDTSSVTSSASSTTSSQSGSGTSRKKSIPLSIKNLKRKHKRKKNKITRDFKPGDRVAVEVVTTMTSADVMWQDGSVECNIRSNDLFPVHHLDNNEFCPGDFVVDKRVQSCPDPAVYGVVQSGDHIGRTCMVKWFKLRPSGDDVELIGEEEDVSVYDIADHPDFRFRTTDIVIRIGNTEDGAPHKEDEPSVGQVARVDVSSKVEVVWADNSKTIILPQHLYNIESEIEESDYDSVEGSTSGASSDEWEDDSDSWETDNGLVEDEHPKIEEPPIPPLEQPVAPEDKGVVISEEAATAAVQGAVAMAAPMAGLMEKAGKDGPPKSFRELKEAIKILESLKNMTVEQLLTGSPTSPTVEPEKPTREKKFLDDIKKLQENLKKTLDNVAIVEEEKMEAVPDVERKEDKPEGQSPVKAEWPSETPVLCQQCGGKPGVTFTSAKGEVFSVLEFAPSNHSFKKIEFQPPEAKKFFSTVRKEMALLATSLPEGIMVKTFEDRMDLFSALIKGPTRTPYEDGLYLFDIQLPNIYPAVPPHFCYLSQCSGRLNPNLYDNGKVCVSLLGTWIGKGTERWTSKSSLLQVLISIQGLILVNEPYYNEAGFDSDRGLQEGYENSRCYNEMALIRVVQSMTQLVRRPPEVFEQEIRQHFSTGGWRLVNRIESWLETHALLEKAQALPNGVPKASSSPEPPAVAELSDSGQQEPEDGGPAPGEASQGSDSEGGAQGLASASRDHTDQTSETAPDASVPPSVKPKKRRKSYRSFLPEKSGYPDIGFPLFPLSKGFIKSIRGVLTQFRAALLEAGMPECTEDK

[4] = target: T1, Flag-UBE2O (full length, expressed in cells) (human); assay: co-IP; co-expression of tagged full-length or truncated proteins in transfected cells (36 h), anti-Flag M2 affinity gel 90 min at 4 °C, immunoblot
[5] = target: T2, endogenous human UBE2O (human (endogenous in HEK293T and HaCaT)) (UniProt Q9C0C9); assay: co-IP; endogenous proteins; MEF or HaCaT lysates incubated with rabbit anti-UBE2O or rabbit IgG overnight at 4 °C, Protein A/G magnetic beads, immunoblot
T2 sequence: T1 sequence

[6] = target: T3, endogenous UBE2O of mouse embryonic fibroblasts (mouse (endogenous in MEFs)) (UniProt Q6ZPJ3); assay: as above
T3 sequence: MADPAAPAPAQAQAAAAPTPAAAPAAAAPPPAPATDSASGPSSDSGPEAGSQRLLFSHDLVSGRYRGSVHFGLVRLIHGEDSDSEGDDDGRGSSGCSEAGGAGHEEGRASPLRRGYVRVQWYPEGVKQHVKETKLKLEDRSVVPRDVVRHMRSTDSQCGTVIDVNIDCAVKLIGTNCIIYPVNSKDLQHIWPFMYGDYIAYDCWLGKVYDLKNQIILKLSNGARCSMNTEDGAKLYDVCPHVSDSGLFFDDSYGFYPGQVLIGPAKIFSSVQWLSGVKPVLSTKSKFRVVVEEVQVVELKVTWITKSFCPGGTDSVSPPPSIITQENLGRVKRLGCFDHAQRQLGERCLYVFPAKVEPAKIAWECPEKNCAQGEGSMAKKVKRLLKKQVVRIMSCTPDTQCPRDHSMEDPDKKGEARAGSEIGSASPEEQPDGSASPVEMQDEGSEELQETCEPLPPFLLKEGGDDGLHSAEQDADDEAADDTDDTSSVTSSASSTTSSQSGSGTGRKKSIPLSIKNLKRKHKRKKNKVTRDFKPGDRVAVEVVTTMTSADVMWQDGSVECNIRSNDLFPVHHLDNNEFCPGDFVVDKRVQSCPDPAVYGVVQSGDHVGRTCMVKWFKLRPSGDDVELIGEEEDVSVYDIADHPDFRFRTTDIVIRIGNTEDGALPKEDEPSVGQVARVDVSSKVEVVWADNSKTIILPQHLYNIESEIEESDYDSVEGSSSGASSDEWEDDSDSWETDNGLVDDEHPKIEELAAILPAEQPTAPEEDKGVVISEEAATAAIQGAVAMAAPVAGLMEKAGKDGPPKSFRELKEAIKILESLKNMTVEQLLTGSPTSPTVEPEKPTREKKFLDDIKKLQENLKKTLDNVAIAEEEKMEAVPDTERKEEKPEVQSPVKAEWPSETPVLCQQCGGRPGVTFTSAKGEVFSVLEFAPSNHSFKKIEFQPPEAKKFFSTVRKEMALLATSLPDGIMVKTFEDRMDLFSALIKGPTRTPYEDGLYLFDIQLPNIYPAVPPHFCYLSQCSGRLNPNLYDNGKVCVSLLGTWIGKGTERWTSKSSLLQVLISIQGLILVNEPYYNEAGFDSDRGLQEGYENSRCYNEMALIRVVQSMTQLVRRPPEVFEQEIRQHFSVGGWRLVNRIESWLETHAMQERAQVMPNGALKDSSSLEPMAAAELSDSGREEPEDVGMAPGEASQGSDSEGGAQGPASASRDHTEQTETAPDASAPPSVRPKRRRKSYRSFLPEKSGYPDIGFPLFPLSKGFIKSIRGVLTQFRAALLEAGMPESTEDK

[7] = target: T4, CTNNA1-V5 (purified mouse CTNNA1 with C-terminal V5 tag) (mouse), P26231; assay: pull-down; ctrl, CTNNA1-V5 (no ATP) or ubiquitylated CTNNA1-V5 baits on V5-Trap magnetic agarose, incubated overnight at 4 °C with lysate of HEK293T, MDCK, MEFs or HEK293T expressing Flag-CTNNA1 or Flag-CTNNA2, immunoblot; only the target purified; settings: remark: other sources report otherwise
T4 chain: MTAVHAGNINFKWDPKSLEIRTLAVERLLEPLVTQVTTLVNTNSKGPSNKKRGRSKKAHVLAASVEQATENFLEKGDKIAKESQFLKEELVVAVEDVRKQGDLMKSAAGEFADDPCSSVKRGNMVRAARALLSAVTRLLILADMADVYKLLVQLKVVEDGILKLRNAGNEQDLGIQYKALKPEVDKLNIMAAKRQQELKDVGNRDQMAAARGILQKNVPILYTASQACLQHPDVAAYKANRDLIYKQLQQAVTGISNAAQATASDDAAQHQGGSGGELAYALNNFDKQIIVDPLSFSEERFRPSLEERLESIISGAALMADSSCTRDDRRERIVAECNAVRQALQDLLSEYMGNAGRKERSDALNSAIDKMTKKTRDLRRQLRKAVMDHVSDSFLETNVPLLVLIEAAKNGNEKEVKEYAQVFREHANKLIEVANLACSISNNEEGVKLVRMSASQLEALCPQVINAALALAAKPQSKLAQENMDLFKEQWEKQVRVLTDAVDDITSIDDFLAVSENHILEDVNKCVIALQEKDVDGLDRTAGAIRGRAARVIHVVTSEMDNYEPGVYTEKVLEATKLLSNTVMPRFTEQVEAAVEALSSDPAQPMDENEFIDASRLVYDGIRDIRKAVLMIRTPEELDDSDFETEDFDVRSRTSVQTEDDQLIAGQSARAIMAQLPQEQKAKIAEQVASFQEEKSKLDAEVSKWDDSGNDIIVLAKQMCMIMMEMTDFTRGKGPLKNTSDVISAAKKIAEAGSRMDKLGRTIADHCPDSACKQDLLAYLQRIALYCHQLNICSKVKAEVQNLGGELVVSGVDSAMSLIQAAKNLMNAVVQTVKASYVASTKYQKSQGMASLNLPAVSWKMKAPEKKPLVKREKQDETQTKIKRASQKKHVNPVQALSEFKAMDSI

Molecule: Flag-CTNNB1 (human β-catenin, expressed in cells) (from UniProt P35222 1-781)
- binding [1]: binds

Molecule: His-GST-β-catenin protein (from UniProt P35222 1-781)
- binding [2]: binds

Molecule: Myc-CTNNA1 (full-length mouse Ctnna1, expressed in cells) (from UniProt P26231 1-906)
- binding [3]: binds
- binding [4]: binds

Molecule: endogenous CTNNA1 of HaCaT cells (from UniProt P35221 1-906)
- binding [5]: binds

Molecule: endogenous CTNNA1 of mouse embryonic fibroblasts (from UniProt P26231 1-906)
- binding [6]: binds

B1: Flag-tagged CTNNA1 (full-length mouse Ctnna1), P26231 1-906 (protein)
chain: T4 chain
- binding [7]: binds
